# Source: the supplement of paper PMC11438910
# This is one part of the list. Only a few entries rise above the background.
# Tests used:
# Assay in all cases: fluorescence intensity of antibody binding to polysaccharide-coupled beads; higher = stronger binding
# [1] = biological target: pneumococcal polysaccharide Pn10A
# [2] = biological target: pneumococcal polysaccharide Pn10B
# [3] = biological target: pneumococcal polysaccharide Pn10C
# [4] = biological target: pneumococcal polysaccharide Pn10F
# [5] = biological target: pneumococcal polysaccharide Pn11A
# [6] = biological target: pneumococcal polysaccharide Pn11B
# [7] = biological target: pneumococcal polysaccharide Pn11C
# [8] = biological target: pneumococcal polysaccharide Pn11D
# [9] = biological target: pneumococcal polysaccharide Pn11F
# [10] = biological target: pneumococcal polysaccharide Pn12A
# [11] = biological target: pneumococcal polysaccharide Pn12B
# [12] = biological target: pneumococcal polysaccharide Pn12F
# [13] = antibody concentration 2337.65 ng/mL
# [14] = antibody concentration 12500 ng/mL
# [15] = antibody concentration 0.1 ng/mL
# [16] = antibody concentration 0.534724 ng/mL
# [17] = antibody concentration 2.8593 ng/mL
# [18] = antibody concentration 15.2894 ng/mL
# [19] = antibody concentration 81.7561 ng/mL
# [20] = antibody concentration 437.17 ng/mL
binder,measurement,setting,value
4-173.5 (protein) chain 1: QLQLQESGPGLVKPSETLSLTCAVSGDSISSNYWSWIRQPPGKGLEWIGRISDGGGSTDYNPSLKSRVTISTDTSKNQFSLKLNSVTAADTAVYFCARGSYRVDYWGQGVLVTVSS chain 2: QAALTQPPSMSGSPGQSVTISCTGASSDIGGYNRVSWYQQHPANAPKLMIYDVSKRPSGVSDRFSGSKSGNTASLTISGLQADDEADYYCSSYAHINTALFGGGTRLTVL,fluorescence intensity,[1]; [13],2210 MFI
same,fluorescence intensity,[1]; [14],3340 MFI
same,fluorescence intensity,[2]; [15],24.5 MFI
same,fluorescence intensity,[2]; [16],24 MFI
same,fluorescence intensity,[2]; [17],30.5 MFI
same,fluorescence intensity,[2]; [18],47.5 MFI
same,fluorescence intensity,[2]; [19],164 MFI
same,fluorescence intensity,[2]; [20],850 MFI
same,fluorescence intensity,[2]; [13],2670 MFI
same,fluorescence intensity,[2]; [14],3970 MFI
same,fluorescence intensity,[3]; [15],15.5 MFI
same,fluorescence intensity,[3]; [16],16.5 MFI
same,fluorescence intensity,[3]; [17],17.8 MFI
same,fluorescence intensity,[3]; [18],24.5 MFI
same,fluorescence intensity,[3]; [19],83 MFI
same,fluorescence intensity,[3]; [20],528 MFI
same,fluorescence intensity,[3]; [13],2480 MFI
same,fluorescence intensity,[3]; [14],3950 MFI
same,fluorescence intensity,[4]; [15],20 MFI
same,fluorescence intensity,[4]; [16],20 MFI
same,fluorescence intensity,[4]; [17],19 MFI
same,fluorescence intensity,[4]; [18],25 MFI
same,fluorescence intensity,[4]; [19],49.2 MFI
same,fluorescence intensity,[4]; [20],276 MFI
same,fluorescence intensity,[4]; [13],1690 MFI
same,fluorescence intensity,[4]; [14],2840 MFI
same,fluorescence intensity,[5]; [15],30 MFI
same,fluorescence intensity,[5]; [16],27.5 MFI
same,fluorescence intensity,[5]; [17],29.8 MFI
same,fluorescence intensity,[5]; [18],36 MFI
same,fluorescence intensity,[5]; [19],84.8 MFI
same,fluorescence intensity,[5]; [20],276 MFI
same,fluorescence intensity,[5]; [13],854 MFI
same,fluorescence intensity,[5]; [14],1320 MFI
same,fluorescence intensity,[6]; [15],27 MFI
same,fluorescence intensity,[6]; [16],27.2 MFI
same,fluorescence intensity,[6]; [17],26 MFI
same,fluorescence intensity,[6]; [18],42.5 MFI
same,fluorescence intensity,[6]; [19],138 MFI
same,fluorescence intensity,[6]; [20],803 MFI
same,fluorescence intensity,[6]; [13],2890 MFI
same,fluorescence intensity,[6]; [14],4050 MFI
same,fluorescence intensity,[7]; [15],22 MFI
same,fluorescence intensity,[7]; [16],22.2 MFI
same,fluorescence intensity,[7]; [17],23 MFI
same,fluorescence intensity,[7]; [18],25 MFI
same,fluorescence intensity,[7]; [19],53 MFI
same,fluorescence intensity,[7]; [20],230 MFI
same,fluorescence intensity,[7]; [13],1160 MFI
same,fluorescence intensity,[7]; [14],3030 MFI
same,fluorescence intensity,[8]; [15],24 MFI
same,fluorescence intensity,[8]; [16],23.5 MFI
same,fluorescence intensity,[8]; [17],25.5 MFI
same,fluorescence intensity,[8]; [18],38 MFI
same,fluorescence intensity,[8]; [19],177 MFI
same,fluorescence intensity,[8]; [20],899 MFI
same,fluorescence intensity,[8]; [13],3240 MFI
same,fluorescence intensity,[8]; [14],5510 MFI
same,fluorescence intensity,[9]; [15],13.8 MFI
same,fluorescence intensity,[9]; [16],14.2 MFI
same,fluorescence intensity,[9]; [17],15 MFI
same,fluorescence intensity,[9]; [18],18.5 MFI
same,fluorescence intensity,[9]; [19],50.5 MFI
same,fluorescence intensity,[9]; [20],250 MFI
same,fluorescence intensity,[9]; [13],1650 MFI
same,fluorescence intensity,[9]; [14],2900 MFI
same,fluorescence intensity,[10]; [15],15 MFI
same,fluorescence intensity,[10]; [16],15 MFI
same,fluorescence intensity,[10]; [17],16.8 MFI
same,fluorescence intensity,[10]; [18],21.5 MFI
same,fluorescence intensity,[10]; [19],73.8 MFI
same,fluorescence intensity,[10]; [20],471 MFI
same,fluorescence intensity,[10]; [13],2420 MFI
same,fluorescence intensity,[10]; [14],5350 MFI
same,fluorescence intensity,[11]; [15],16 MFI
same,fluorescence intensity,[11]; [16],15 MFI
same,fluorescence intensity,[11]; [17],15 MFI
same,fluorescence intensity,[11]; [18],18 MFI
same,fluorescence intensity,[11]; [19],36.8 MFI
same,fluorescence intensity,[11]; [20],205 MFI
same,fluorescence intensity,[11]; [13],1390 MFI
same,fluorescence intensity,[11]; [14],3980 MFI
same,fluorescence intensity,[12]; [15],20.5 MFI
same,fluorescence intensity,[12]; [16],19.5 MFI
same,fluorescence intensity,[12]; [17],22 MFI
same,fluorescence intensity,[12]; [18],42 MFI
same,fluorescence intensity,[12]; [19],165 MFI
same,fluorescence intensity,[12]; [20],840 MFI
same,fluorescence intensity,[12]; [13],2490 MFI
same,fluorescence intensity,[12]; [14],3990 MFI

# Another view of part of the listing above:
binder	measurement	setting	value
4-173.5 (protein) chain 1: QLQLQESGPGLVKPSETLSLTCAVSGDSISSNYWSWIRQPPGKGLEWIGRISDGGGSTDYNPSLKSRVTISTDTSKNQFSLKLNSVTAADTAVYFCARGSYRVDYWGQGVLVTVSS chain 2: QAALTQPPSMSGSPGQSVTISCTGASSDIGGYNRVSWYQQHPANAPKLMIYDVSKRPSGVSDRFSGSKSGNTASLTISGLQADDEADYYCSSYAHINTALFGGGTRLTVL	fluorescence intensity	[10]; [13]	2420 MFI
same	fluorescence intensity	[10]; [14]	5350 MFI
same	fluorescence intensity	[11]; [15]	16 MFI
same	fluorescence intensity	[11]; [16]	15 MFI
same	fluorescence intensity	[11]; [17]	15 MFI
